Experimental findings from paper PMC10784588 are described below.

By UniProt entry, the sequences of proteins in these tests, tags left out.
UniProt Q4G0F5: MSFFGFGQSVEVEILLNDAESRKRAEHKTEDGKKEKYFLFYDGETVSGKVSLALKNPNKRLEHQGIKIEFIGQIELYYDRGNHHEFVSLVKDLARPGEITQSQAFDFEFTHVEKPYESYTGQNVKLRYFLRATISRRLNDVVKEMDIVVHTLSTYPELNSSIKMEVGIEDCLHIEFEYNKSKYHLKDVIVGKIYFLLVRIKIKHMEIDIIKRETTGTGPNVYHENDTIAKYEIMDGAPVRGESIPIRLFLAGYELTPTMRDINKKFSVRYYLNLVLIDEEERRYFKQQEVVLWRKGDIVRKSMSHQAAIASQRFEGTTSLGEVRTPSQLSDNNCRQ

No constants are given. Whether binding was seen depends on the method and setting. In cells and extracts the contact can be indirect. Some binding calls cover weakened binding; strength is not graded here. Where a sequence is shown, tags or fusion partners need not be part of it.

This experiment concerns the target T1, OXR1-GFP (human Oxidation Resistance 1, Origene tagged ORF clone) (human) (UniProt Q8N573).
T1 sequence: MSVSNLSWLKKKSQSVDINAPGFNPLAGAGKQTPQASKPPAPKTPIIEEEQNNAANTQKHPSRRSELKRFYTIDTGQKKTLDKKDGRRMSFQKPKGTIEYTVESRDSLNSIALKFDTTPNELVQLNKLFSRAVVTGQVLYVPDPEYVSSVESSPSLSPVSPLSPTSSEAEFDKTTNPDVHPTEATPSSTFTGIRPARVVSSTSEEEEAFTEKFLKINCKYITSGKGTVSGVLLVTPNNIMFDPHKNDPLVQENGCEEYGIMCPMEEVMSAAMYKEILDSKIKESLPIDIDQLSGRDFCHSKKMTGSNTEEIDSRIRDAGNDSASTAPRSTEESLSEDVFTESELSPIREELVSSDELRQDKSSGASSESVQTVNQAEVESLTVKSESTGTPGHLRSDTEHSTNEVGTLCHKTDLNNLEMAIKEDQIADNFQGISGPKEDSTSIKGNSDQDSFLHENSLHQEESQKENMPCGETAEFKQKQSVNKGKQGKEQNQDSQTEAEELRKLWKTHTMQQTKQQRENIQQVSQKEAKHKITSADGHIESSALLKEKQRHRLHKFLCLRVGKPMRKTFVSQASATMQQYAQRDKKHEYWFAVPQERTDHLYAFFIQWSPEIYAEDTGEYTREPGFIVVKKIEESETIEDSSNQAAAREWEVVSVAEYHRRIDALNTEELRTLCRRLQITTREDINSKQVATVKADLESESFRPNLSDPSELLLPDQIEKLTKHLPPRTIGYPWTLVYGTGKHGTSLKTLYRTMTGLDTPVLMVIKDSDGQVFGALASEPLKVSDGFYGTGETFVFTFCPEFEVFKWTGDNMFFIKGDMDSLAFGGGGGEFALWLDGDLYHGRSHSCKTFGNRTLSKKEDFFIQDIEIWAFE
In words: co-IP; lysates (MPER lysis buffer with protease inhibitors, sonicated) of human fibroblasts transduced with lentivirus for OXR1-GFP or GFP alone; pre-cleared with protein G beads, anti-GFP antibody (sc-9996) overnight at 4 C, protein G beads 4 h at 4 C, 3 washes with lysis buffer; western blot.

For VPS26A (from UniProt O75436 1-327), the binding result is “binds”.
Regarding VPS26B (from UniProt Q4G0F5 1-336), the binding result is “binds”.
